This is one part of the list.
Columns and labels:
Test in all cases: log2 fold change, soluble protein after heating vs DMSO (PISA); higher = thermal stabilisation; K562 lysate, 10 uM; active = over 0.2 and 3.5 SD of the protein, either way, in both replicates (recomputed)
alvocidib = compound: CN1CC[C@H](c2c(O)cc(O)c3c(=O)cc(-c4ccccc4Cl)oc23)[C@H](O)C1 [alvocidib]
Outline: (§1)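 Soluble protein was defined as the supernatant remaining after 21,000xg for 90 min, following pooling of heated aliquots and adjustment to 0.5% NP-40 at 4°C. Before that, crude K562 extract at 1 mg/mL protein in PBS pH 7.4 with 1 mM MgCl2 was treated with 10 μM compound for 30 min and heated for 3 min across 48°C-58°C. Quantification used TMTpro 16plex LC-MS/MS with channel sums equalised, and values are log-two fold changes in thermal stability relative to solvent controls from duplicates.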

By UniProt entry, the sequences of proteins in these tests, tags left out. Where a name states a change or a piece, a line headed by the entry shows the natural chain unless it says otherwise.
UniProt P54725: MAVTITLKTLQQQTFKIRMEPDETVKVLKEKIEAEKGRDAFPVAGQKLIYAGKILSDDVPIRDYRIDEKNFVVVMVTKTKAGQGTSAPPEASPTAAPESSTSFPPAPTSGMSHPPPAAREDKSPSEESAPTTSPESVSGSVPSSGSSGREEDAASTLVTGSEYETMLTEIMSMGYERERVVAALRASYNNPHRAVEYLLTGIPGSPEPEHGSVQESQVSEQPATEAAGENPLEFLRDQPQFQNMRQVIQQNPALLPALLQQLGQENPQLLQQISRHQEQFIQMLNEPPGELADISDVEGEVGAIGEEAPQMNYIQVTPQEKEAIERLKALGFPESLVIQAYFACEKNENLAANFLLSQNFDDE
UniProt Q15276: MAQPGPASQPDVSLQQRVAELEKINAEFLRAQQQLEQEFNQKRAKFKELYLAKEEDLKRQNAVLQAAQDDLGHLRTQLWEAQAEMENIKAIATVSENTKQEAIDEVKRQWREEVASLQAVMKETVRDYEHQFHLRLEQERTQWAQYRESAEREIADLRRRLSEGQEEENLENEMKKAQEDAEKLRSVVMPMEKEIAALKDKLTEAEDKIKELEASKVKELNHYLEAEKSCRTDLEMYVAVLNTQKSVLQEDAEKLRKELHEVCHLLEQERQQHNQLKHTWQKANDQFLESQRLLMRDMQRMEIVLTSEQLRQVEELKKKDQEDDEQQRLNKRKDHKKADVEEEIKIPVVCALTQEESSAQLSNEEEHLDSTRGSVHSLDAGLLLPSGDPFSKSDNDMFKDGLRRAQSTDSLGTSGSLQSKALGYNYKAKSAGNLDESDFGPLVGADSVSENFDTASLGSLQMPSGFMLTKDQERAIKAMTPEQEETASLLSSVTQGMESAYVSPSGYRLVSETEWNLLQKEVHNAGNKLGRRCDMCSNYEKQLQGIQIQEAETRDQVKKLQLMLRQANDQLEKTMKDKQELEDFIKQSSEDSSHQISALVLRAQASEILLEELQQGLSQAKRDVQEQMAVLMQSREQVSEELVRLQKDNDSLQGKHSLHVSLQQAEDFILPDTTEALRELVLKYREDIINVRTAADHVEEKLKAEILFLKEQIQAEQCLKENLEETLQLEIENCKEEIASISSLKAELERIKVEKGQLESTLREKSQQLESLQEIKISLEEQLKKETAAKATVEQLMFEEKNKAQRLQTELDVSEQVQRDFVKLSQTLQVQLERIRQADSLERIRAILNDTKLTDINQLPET
UniProt Q9BXR0: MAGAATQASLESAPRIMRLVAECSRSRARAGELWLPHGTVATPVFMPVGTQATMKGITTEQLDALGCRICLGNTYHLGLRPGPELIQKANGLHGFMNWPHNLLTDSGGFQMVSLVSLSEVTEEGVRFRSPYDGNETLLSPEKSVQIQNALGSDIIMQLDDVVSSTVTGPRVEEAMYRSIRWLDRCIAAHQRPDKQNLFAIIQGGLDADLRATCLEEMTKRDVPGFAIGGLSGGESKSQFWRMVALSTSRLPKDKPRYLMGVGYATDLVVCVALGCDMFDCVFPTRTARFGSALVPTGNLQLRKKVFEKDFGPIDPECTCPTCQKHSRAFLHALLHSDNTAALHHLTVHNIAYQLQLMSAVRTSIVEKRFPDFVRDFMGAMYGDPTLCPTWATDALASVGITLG
UniProt Q9BRQ0: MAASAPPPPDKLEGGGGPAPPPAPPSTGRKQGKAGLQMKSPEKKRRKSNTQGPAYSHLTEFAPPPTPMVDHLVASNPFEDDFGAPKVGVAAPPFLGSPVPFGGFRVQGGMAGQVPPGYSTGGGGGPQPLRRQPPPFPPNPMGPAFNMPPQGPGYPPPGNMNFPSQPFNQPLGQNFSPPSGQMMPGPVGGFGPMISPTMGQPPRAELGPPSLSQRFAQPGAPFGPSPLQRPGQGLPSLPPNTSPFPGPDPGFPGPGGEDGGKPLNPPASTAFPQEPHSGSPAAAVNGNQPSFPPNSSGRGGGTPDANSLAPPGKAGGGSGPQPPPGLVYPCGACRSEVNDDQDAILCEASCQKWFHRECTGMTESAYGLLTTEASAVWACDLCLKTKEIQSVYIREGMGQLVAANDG
UniProt P09417: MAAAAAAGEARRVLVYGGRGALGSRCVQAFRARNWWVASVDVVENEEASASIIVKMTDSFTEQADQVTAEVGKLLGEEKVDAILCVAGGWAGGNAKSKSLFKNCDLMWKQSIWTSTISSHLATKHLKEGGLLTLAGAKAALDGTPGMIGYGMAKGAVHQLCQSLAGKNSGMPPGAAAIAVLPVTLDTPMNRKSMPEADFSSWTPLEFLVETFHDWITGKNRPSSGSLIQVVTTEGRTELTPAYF
UniProt Q8WZA2: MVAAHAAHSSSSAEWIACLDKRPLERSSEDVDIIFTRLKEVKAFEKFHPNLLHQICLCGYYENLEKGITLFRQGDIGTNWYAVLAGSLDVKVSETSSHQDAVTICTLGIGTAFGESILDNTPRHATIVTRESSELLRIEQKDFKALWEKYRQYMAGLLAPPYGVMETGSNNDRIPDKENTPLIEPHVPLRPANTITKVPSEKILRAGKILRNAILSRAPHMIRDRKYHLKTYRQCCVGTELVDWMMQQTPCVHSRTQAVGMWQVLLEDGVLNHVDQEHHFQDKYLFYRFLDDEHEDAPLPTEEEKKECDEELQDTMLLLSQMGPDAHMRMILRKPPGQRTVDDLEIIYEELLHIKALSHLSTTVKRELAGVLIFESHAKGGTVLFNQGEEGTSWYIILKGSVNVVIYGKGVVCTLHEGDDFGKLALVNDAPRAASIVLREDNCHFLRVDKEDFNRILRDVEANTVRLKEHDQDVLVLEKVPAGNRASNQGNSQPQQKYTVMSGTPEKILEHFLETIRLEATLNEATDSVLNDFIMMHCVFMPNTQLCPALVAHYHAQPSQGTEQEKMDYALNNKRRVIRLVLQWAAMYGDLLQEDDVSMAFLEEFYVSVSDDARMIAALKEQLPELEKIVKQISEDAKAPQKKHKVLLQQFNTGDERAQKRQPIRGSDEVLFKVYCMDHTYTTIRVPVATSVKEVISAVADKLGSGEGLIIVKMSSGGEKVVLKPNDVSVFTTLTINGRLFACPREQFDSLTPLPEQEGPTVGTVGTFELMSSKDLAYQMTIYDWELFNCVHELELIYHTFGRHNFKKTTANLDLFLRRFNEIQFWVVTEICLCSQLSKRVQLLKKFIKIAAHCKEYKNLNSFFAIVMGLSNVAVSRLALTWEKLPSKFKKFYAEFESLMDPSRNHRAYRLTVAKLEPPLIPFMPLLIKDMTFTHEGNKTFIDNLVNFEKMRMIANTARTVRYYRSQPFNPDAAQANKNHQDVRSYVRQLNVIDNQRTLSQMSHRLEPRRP
UniProt Q9H082: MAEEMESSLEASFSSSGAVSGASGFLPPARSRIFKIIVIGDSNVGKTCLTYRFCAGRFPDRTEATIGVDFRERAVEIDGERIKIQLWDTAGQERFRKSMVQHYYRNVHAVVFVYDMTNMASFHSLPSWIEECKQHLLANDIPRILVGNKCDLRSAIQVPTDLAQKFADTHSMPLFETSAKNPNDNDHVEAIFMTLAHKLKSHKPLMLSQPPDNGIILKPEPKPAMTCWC
UniProt Q86YS3: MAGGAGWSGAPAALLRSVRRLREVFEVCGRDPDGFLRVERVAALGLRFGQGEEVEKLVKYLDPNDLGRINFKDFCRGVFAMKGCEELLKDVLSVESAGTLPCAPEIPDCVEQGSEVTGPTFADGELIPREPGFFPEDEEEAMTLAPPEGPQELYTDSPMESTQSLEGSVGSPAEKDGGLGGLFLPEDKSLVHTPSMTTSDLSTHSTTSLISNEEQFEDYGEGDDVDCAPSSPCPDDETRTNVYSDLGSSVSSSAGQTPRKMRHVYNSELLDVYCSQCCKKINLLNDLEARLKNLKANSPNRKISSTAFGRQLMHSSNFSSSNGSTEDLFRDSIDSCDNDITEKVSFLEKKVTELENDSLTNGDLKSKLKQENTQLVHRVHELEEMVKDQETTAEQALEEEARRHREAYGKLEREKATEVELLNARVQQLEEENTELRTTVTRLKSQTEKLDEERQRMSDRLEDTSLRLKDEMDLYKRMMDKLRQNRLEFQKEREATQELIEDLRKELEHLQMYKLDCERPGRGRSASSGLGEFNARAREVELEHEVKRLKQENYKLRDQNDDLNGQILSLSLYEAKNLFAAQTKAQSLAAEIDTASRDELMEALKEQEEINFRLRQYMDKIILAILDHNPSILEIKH
UniProt Q9BUV8: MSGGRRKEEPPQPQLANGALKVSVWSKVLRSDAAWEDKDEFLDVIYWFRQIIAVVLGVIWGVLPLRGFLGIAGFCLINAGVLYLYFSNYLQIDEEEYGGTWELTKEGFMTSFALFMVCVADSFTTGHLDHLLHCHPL
UniProt Q9H6Z4: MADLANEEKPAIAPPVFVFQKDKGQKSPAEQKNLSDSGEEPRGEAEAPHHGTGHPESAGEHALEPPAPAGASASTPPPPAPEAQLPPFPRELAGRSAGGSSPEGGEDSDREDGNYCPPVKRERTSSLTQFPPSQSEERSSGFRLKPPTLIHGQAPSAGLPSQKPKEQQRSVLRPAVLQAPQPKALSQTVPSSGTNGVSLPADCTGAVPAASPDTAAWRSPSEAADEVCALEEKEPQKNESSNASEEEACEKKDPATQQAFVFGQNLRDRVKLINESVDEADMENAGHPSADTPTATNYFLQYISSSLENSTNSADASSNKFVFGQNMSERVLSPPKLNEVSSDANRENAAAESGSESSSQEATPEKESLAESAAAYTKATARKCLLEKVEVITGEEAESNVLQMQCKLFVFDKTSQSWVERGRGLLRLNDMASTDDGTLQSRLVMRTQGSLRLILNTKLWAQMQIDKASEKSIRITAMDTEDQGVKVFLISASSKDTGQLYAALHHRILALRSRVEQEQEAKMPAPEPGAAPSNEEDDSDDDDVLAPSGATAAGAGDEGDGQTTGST
UniProt Q9ULZ3, whole entry, looked up: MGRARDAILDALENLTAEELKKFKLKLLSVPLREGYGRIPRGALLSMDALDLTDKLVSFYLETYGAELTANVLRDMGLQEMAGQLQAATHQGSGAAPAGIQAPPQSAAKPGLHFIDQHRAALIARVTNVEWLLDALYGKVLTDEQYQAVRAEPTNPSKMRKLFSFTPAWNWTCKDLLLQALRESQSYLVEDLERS
UniProt Q86X10: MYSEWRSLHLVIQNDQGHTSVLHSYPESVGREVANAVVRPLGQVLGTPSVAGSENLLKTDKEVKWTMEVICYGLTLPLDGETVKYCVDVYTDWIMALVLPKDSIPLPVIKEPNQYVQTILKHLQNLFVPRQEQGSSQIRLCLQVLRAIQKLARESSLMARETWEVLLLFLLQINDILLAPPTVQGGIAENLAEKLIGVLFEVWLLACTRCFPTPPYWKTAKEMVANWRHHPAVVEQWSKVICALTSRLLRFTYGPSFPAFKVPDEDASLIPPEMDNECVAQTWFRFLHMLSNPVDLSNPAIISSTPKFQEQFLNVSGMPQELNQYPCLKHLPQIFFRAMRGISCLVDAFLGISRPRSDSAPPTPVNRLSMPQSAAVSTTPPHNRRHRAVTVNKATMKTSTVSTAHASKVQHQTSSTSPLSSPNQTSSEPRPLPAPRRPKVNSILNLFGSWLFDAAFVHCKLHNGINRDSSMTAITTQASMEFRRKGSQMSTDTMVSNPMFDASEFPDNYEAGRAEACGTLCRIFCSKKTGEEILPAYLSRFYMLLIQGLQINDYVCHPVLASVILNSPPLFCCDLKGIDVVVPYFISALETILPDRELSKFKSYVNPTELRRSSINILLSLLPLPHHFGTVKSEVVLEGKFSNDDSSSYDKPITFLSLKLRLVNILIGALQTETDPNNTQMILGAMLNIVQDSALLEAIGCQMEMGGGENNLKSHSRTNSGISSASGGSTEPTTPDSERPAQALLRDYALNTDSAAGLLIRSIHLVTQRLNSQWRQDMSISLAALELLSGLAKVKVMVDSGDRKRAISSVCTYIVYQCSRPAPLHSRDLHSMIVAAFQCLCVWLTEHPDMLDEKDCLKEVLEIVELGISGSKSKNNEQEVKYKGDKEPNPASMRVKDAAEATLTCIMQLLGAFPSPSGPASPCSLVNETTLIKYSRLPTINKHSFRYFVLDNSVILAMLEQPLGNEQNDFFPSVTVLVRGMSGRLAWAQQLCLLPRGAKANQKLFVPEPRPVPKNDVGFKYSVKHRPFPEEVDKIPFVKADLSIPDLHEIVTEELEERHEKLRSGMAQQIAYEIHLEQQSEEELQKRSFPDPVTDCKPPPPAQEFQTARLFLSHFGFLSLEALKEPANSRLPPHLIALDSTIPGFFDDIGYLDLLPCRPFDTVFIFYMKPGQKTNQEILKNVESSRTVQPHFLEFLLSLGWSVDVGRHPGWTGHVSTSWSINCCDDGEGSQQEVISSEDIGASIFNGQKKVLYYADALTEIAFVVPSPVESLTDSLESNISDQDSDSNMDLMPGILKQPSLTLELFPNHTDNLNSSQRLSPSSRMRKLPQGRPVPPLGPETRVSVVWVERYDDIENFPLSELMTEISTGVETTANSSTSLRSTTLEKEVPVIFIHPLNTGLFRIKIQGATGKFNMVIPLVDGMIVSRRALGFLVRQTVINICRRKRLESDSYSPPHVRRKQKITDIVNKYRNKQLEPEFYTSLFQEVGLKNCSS

Tubastatin A = compound: CN1CCc2c(c3ccccc3n2Cc2ccc(C(=O)NO)cc2)C1 [Tubastatin A]
Outline: as §1

[1] = compound: CNC(=O)C1=CC=CC=C1NC2=NC(=NC=C2Cl)NC3=C(C=C(C=C3)N4CCOCC4)OC
Outline: as §1

defactinib = compound: CNC(=O)c1ccc(Nc2ncc(C(F)(F)F)c(NCc3nccnc3N(C)S(C)(=O)=O)n2)cc1 [defactinib]
Outline: as §1

[2] = compound: CNc1nc(-c2ccc3c(N)n[nH]c3c2)cc(N2C[C@@H](C(=O)NC3CCCCC3)CC[C@H]2C)n1
Outline: as §1

encorafenib = compound: COC(=O)N[C@@H](C)CNc1nccc(-c2cn(C(C)C)nc2-c2cc(Cl)cc(NS(C)(=O)=O)c2F)n1 [encorafenib]
Outline: as §1

[3] = compound: COC(=O)[C@H](CCSC)NC(=O)C1=C(C=C(C=C1)NC[C@H](CS)N)C2=CC=CC=C2
Outline: as §1

alisertib = compound: COc1cc(Nc2ncc3c(n2)-c2ccc(Cl)cc2C(c2c(F)cccc2OC)=NC3)ccc1C(=O)O [alisertib]
Outline: as §1

[4] = compound: COc1cc2nc(-c3cc(F)ccc3O)nc(N[C@@H]3CNC[C@H]3C(C)(C)O)c2cc1OC
Outline: as §1

gefitinib = compound: COc1cc2ncnc(Nc3ccc(F)c(Cl)c3)c2cc1OCCCN1CCOCC1 [gefitinib]
Outline: as §1

lapatinib = compound: CS(=O)(=O)CCNCc1ccc(-c2ccc3ncnc(Nc4ccc(OCc5cccc(F)c5)c(Cl)c4)c3c2)o1 [lapatinib]
Outline: as §1

pictilisib = compound: CS(=O)(=O)N1CCN(Cc2cc3nc(-c4cccc5[nH]ncc45)nc(N4CCOCC4)c3s2)CC1 [pictilisib]
Outline: as §1

crizotinib = compound: C[C@@H](Oc1cc(-c2cnn(C3CCNCC3)c2)cnc1N)c1c(Cl)ccc(F)c1Cl [crizotinib]
Outline: as §1

[5] = compound: C[C@H](C1=CC=C(C=C1)C(=O)NC2=C3C=CNC3=NC=C2)N
Outline: as §1

duvelisib = compound: C[C@H](Nc1ncnc2nc[nH]c12)c1cc2cccc(Cl)c2c(=O)n1-c1ccccc1 [duvelisib]
Outline: as §1

gandotinib = compound: Cc1cc(Nc2cc(CN3CCOCC3)c3nc(C)c(Cc4ccc(Cl)cc4F)n3n2)n[nH]1 [gandotinib]
Outline: as §1

tozasertib = compound: Cc1cc(Nc2cc(N3CCN(C)CC3)nc(Sc3ccc(NC(=O)C4CC4)cc3)n2)n[nH]1 [tozasertib]
Outline: as §1

doramapimod = compound: Cc1ccc(-n2nc(C(C)(C)C)cc2NC(=O)Nc2ccc(OCCN3CCOCC3)c3ccccc23)cc1 [doramapimod]
Outline: as §1

bafetinib = compound: Cc1ccc(NC(=O)c2ccc(CN3CC[C@H](N(C)C)C3)c(C(F)(F)F)c2)cc1Nc1nccc(-c2cncnc2)n1 [bafetinib]
Outline: as §1

[6] = compound: Cc1cccc(CC(=O)N2CCc3c2ccc(-c2cn(C)c4ncnc(N)c24)c3F)n1
Outline: as §1

Measured: log2 fold change

RALY (UniProt Q9UKM9)
inactive: alvocidib 0.037 | Tubastatin A -0.009 | [1] -0.004 | defactinib 0.019 | [2] -0.044 | encorafenib 0.016 | [3] 0.095 | alisertib -0.007 | [4] 0.014 | gefitinib -0.054 | lapatinib 0.027 | pictilisib -0.024 | crizotinib -0.055 | [5] 0.034 | duvelisib 0.051 | gandotinib -0.11 | tozasertib -0.058 | doramapimod -0.036 | bafetinib 0.053 | [6] -0.037

RAB6B (UniProt Q9NRW1)
inactive: alvocidib -0.017 | Tubastatin A 0.073 | [1] 0.036 | defactinib 0.03 | [2] -0.015 | encorafenib 0.071 | [3] -0.029 | alisertib 0.024 | [4] 0.003 | gefitinib -0.002 | lapatinib -0.002 | pictilisib 0 | crizotinib -0.022 | [5] -0.023 | duvelisib 0.004 | gandotinib -0.017 | tozasertib 0.005 | doramapimod 0 | bafetinib 0.036 | [6] 0.004

RAD23A isoform 3 (UniProt P54725)
inactive: alvocidib 0.189 | Tubastatin A 0.078 | [1] 0.136 | alisertib 0.16 | [4] -0.115 | gefitinib 0.076 | lapatinib -0.257 | [5] -0.125 | gandotinib 0.006 | [6] -0.047

RAB29 (UniProt O14966)
inactive: alvocidib -0.104 | Tubastatin A -0.172 | [1] 0.096 | [2] 0.081 | [5] 0.041 | duvelisib 0.048 | gandotinib -0.084 | [6] 0.012

RABEP1 (UniProt Q15276)
inactive: alvocidib -0.015 | Tubastatin A 0.036 | [1] -0.048 | defactinib -0.018 | [2] 0.047 | encorafenib 0.005 | [3] -0.031 | alisertib -0.012 | [4] 0.013 | gefitinib 0.02 | lapatinib 0.002 | pictilisib 0.001 | crizotinib 0.029 | [5] -0.015 | duvelisib 0.006 | gandotinib 0.049 | tozasertib 0.002 | doramapimod -0.014 | bafetinib -0.04 | [6] 0.015

Two records drawn at random from those above, as already listed:
RAB6B (UniProt Q9NRW1)
inactive: alvocidib -0.017 | Tubastatin A 0.073 | [1] 0.036 | defactinib 0.03 | [2] -0.015 | encorafenib 0.071 | [3] -0.029 | alisertib 0.024 | [4] 0.003 | gefitinib -0.002 | lapatinib -0.002 | pictilisib 0 | crizotinib -0.022 | [5] -0.023 | duvelisib 0.004 | gandotinib -0.017 | tozasertib 0.005 | doramapimod 0 | bafetinib 0.036 | [6] 0.004

RAD23A isoform 3 (UniProt P54725)
inactive: alvocidib 0.189 | Tubastatin A 0.078 | [1] 0.136 | alisertib 0.16 | [4] -0.115 | gefitinib 0.076 | lapatinib -0.257 | [5] -0.125 | gandotinib 0.006 | [6] -0.047

Continuation.

QTRT1 (UniProt Q9BXR0)
inactive: alvocidib -0.027 | Tubastatin A 0.005 | [1] 0.018 | defactinib -0.014 | [2] 0.048 | encorafenib -0.041 | [3] 0.025 | alisertib -0.007 | [4] -0.021 | gefitinib -0.053 | lapatinib -0.009 | pictilisib 0.011 | crizotinib -0.021 | [5] -0.088 | duvelisib 0.016 | gandotinib 0.031 | tozasertib -0.028 | doramapimod 0.038 | bafetinib -0.005 | [6] 0.05

NA (UniProt Q4G0T1)
inactive: alvocidib -0.132 | Tubastatin A -0.272 | [1] -0.115 | [2] -0.062 | crizotinib 0.023 | [5] -0.044 | duvelisib 0.035 | gandotinib -0.015 | doramapimod 0.042 | [6] 0.034

PYGO2 (UniProt Q9BRQ0)
inactive: alvocidib 0.01 | Tubastatin A -0.019 | [1] 0.032 | [2] 0.131 | encorafenib -0.031 | [3] -0.121 | alisertib -0.011 | gefitinib -0.026 | pictilisib -0.038 | crizotinib 0.067 | [5] 0.014 | duvelisib -0.046 | gandotinib 0.078 | tozasertib -0.076 | doramapimod 0.032 | bafetinib -0.046 | [6] -0.022

QDPR (UniProt P09417)
inactive: alvocidib 0.017 | Tubastatin A 0.005 | [1] -0.033 | defactinib -0.033 | [2] -0.035 | encorafenib -0.05 | [3] 0.031 | alisertib -0.001 | [4] 0.026 | gefitinib 0.014 | lapatinib -0.063 | pictilisib -0.042 | crizotinib -0.003 | [5] -0.039 | duvelisib 0.037 | gandotinib -0.011 | tozasertib -0.003 | doramapimod -0.015 | bafetinib -0.005 | [6] 0.022

RAPGEF4 (UniProt Q8WZA2)
inactive: alvocidib -0.367 | Tubastatin A 0.156 | [1] 0.061 | defactinib -0.023 | [2] 0.433 | encorafenib 0.018 | [3] 0.147 | [4] 0.196 | lapatinib -0.061 | pictilisib 0.047 | crizotinib -0.24 | duvelisib 0.104 | gandotinib 0.38 | tozasertib -0.088 | doramapimod -0.041 | bafetinib -0.212 | [6] 0.543
active: [5] -0.804

RAB33B (UniProt Q9H082)
inactive: alvocidib -0.019 | Tubastatin A 0.082 | [1] -0.063 | defactinib 0.091 | [2] 0.05 | encorafenib 0.055 | [3] -0.046 | alisertib -0.017 | [4] -0.024 | gefitinib -0.006 | lapatinib 0.073 | pictilisib 0.055 | [5] -0.152 | duvelisib 0.023 | gandotinib -0.013 | tozasertib 0.032 | bafetinib 0.007 | [6] 0.123

RABIF (UniProt P47224)
inactive: alvocidib -0.04 | Tubastatin A 0.036 | [1] 0.009 | defactinib 0.02 | [2] 0.017 | encorafenib 0.001 | [3] -0.015 | alisertib -0.038 | [4] 0.01 | gefitinib -0.003 | lapatinib 0.065 | pictilisib -0.015 | crizotinib 0 | [5] 0.031 | duvelisib 0.016 | gandotinib -0.007 | tozasertib 0.069 | doramapimod 0.013 | bafetinib 0.054 | [6] 0.04

RAB11FIP4 isoform 2 (UniProt Q86YS3)
inactive: Tubastatin A -0.198

PYCR1 (UniProt J3QKT4)
inactive: Tubastatin A 0.115 | [1] -0.045 | defactinib -0.1 | [2] 0.411 | encorafenib -0.048 | [3] 0.097 | alisertib -0.092 | [4] 0.049 | gefitinib -0.142 | lapatinib -0.078 | pictilisib -0.265 | crizotinib 0 | duvelisib 0.206 | tozasertib -0.045 | doramapimod 0.028 | bafetinib -0.252

RAB5IF isoform 5 (UniProt Q9BUV8)
inactive: alvocidib 0.249 | [1] 0 | defactinib -0.032 | [2] -0.011 | encorafenib 0.04 | [3] -0.125 | alisertib 0.15 | [4] -0.011 | gefitinib 0.131 | lapatinib -0.043 | pictilisib -0.122 | duvelisib -0.071 | gandotinib -0.234 | tozasertib 0 | bafetinib 0.221 | [6] -0.357
active: [5] 0.753

RANBP3 isoform 2 (UniProt Q9H6Z4)
inactive: Tubastatin A 0.079 | defactinib -0.178 | [2] 0.004 | encorafenib 0.038 | [3] -0.066 | alisertib 0.081 | [4] 0.025 | gefitinib 0.017 | lapatinib -0.045 | pictilisib 0.044 | crizotinib 0.006 | duvelisib -0.121 | tozasertib -0.038 | doramapimod 0.027 | bafetinib -0.005

QSOX1 (UniProt O00391)
inactive: alvocidib -0.009 | [1] -0.04 | [2] 0.076 | encorafenib 0.126 | [3] 0.083 | crizotinib 0.098 | [5] -0.043 | duvelisib -0.24 | gandotinib 0.011 | tozasertib 0.086 | doramapimod 0.119 | [6] 0.02

PYCARD isoform 2 (UniProt Q9ULZ3)
inactive: alvocidib -0.139 | Tubastatin A -0.036 | [1] -0.054 | [4] -0.149 | lapatinib -0.135 | pictilisib -0.003 | crizotinib 0.165 | [5] 0.018 | gandotinib -0.126 | doramapimod 0.02 | bafetinib 0.127 | [6] 0.013

RALGAPB isoform 3 (UniProt Q86X10)
inactive: alvocidib 0.161 | [2] 0.064 | encorafenib 0.073 | [3] 0.107 | pictilisib -0.018 | [5] -0.04 | duvelisib -0.396 | gandotinib -0.33 | tozasertib 0.027 | bafetinib -0.255 | [6] -0.026

Reference: the supplement of paper PMC10849652
